Paper PMC6884511
No constants are given. Whether binding was seen depends on the method and setting. In cells and extracts the contact can be indirect. Some binding calls cover weakened binding; strength is not graded here. For part of these data: Where a sequence is shown, tags or fusion partners need not be part of it.

The chains behind the UniProt entries cited, without tags or fusion partners.
UniProt Q06413: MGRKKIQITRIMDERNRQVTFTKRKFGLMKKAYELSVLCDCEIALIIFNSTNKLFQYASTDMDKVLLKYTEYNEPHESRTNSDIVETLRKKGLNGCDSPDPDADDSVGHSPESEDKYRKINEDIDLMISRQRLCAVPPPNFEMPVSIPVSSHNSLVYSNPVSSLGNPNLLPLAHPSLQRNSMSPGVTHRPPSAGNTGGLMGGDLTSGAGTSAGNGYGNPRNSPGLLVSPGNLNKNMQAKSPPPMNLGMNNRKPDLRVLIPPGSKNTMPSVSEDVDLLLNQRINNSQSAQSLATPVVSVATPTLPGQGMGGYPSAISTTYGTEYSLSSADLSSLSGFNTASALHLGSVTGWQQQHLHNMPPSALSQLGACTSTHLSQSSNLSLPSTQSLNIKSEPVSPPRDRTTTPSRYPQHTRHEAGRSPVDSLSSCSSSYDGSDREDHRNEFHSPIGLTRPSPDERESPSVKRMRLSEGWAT
UniProt P08659: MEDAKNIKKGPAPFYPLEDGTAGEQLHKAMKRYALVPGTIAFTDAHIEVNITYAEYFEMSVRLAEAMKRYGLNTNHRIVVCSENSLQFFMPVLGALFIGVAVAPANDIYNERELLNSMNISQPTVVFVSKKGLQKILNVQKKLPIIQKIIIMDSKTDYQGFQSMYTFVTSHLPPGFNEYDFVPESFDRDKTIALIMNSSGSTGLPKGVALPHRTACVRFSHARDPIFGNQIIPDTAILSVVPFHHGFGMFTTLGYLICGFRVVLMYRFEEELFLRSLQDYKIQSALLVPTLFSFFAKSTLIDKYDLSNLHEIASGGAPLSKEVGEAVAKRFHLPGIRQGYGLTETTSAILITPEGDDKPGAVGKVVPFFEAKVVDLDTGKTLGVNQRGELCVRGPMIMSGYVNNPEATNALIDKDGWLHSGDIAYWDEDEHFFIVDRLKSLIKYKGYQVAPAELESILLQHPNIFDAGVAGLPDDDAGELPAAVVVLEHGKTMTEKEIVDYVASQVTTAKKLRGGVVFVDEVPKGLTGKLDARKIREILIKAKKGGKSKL

Experiments:
MBP-TBX5 = MBP-TBX5 (UniProt Q99593); test: pull-down; MBP-TBX5 immobilised on amylose resin or GST-MEF2C on glutathione sepharose beads (2-5 µg), incubated with 35S-labelled in vitro translated protein; 50 mM Tris pH 7.4, 100 mM NaCl, 0.05% NP40, 1 mM DTT, 10% glycerol, 0.05% BSA, 2 hours at 4 °C; SDS-PAGE, PhosphorImager; only the target purified
GST-MEF2C = GST-MEF2C (UniProt Q06413); test: as above

| Substance | binding (MBP-TBX5) | binding (GST-MEF2C) |
| --- | --- | --- |
| radiolabelled MEF2C (from UniProt Q06413 1-473) | binds | – |
| Radiolabelled luciferase control protein (from UniProt P08659 1-550) (enzyme) | no binding | no binding |
